Experimental data reported in PMC3065546 (Pain, 2011).

By UniProt entry, the sequences of proteins in these tests, tags left out. Where a name states a change or a piece, a line headed by the entry shows the natural chain unless it says otherwise.
UniProt P41145: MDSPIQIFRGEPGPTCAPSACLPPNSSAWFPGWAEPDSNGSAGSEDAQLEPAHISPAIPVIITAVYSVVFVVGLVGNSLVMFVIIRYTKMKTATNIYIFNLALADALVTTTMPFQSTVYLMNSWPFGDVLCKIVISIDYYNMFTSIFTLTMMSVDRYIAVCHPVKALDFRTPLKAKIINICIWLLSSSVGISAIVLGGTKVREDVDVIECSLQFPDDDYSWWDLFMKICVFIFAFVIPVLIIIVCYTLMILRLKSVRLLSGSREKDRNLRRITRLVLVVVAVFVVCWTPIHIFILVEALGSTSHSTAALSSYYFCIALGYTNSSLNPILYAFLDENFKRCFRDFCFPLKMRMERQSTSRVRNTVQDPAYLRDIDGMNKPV
UniProt P33261, whole entry: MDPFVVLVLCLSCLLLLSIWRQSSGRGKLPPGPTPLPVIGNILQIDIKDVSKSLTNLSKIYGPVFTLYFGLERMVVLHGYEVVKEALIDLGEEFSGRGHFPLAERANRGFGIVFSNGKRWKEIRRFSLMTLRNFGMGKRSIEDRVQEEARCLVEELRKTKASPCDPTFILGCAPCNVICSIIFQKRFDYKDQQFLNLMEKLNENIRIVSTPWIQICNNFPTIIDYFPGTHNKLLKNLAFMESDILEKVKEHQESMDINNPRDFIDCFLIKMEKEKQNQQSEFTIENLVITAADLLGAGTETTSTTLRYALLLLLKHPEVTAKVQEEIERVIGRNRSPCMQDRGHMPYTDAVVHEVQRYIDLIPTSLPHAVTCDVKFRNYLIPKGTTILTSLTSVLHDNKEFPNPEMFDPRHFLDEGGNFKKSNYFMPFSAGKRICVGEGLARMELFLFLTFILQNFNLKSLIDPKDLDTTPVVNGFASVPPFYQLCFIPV

Experiments:
[1] = target: human δ opioid receptor (Homo sapiens, UniProt P41143); test: Opioid receptor binding, [3H]naltrindole, CHO cell membranes
[2] = target: human κ opioid receptor (Homo sapiens, UniProt P41145); test: Opioid receptor binding, [3H]U69,593, CHO cell membranes
[3] = test system: nociceptive thresholds; assay type: in vivo, rat; settings: large icv doses (250-500 nmol), 7 – 11 min after administration, TF and HP
[4] = target: cDNA-expressed human CYP2C19 (Homo sapiens, UniProt P33261); test: biochemical

Ki [1]: 690 ± 44 nM
Ki [2]: 960 ± 51 nM
Ki [4]: 31 nM
SMILES: Clc1ccc(CSC(Cn2ccnc2)c2ccc(Cl)cc2Cl)cc1 (stereo not shown) [Sulconazole, sulconazole]
Antinociception of inhibitor alone [3]: notable antinociception
